Measurements published in paper PMC6377406.

Sequences of proteins named here, by UniProt entry; tags and fusion partners are left off. A change or cut given only in a name is not applied to a line headed by its entry. Residues count along the entry.
UniProt Q9BXM7: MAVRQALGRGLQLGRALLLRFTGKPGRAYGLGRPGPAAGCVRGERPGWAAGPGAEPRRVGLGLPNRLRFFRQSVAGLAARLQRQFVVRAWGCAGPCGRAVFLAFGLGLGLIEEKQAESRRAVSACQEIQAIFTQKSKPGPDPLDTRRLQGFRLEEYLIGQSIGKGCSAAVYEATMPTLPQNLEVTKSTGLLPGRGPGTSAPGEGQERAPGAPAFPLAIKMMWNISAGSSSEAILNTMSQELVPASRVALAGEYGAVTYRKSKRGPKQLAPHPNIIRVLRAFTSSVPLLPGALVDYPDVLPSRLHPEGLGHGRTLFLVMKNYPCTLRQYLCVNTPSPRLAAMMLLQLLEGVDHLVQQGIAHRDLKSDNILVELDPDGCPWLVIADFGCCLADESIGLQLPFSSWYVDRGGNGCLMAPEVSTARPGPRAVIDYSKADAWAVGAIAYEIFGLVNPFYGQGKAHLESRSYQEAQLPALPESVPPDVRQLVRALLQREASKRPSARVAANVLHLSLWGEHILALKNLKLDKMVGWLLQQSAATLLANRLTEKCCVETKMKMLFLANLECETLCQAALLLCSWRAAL
UniProt Q3ZCQ8, residues 45-353: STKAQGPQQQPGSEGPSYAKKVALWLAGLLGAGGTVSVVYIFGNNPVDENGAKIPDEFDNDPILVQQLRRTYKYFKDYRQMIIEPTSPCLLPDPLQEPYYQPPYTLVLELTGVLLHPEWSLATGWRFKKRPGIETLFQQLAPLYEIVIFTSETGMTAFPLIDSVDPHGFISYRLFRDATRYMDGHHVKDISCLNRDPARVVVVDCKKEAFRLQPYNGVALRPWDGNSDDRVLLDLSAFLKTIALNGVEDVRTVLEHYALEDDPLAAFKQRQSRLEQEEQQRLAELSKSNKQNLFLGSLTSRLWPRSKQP

Experiments:
PINK1-GFP [1] = biological target: PINK1-GFP (UniProt Q9BXM7); test: affinity purification with mass spectrometry; GFP-IP (μMACS Epitope Tag Protein Isolation kit) of lysates of HEK293 cells expressing GFP or PINK1-GFP; gel bands analysed by label-free LC-MS
PINK1-GFP [2] = biological target: PINK1-GFP (UniProt Q9BXM7); test: as above; remark: listed apart in the source

binding (PINK1-GFP [1]) | binding (PINK1-GFP [2]) | Molecule
binds |  | Translocase of inner mitochondrial membrane 50 homolog (from UniProt Q3ZCQ8 45-353)
binds |  | valosin-containing protein (VCP), endogenous in HEK293 cells (from UniProt P55072 1-806)
 | binds | Translocase of outer mitochondrial membrane 40 homolog (protein, UniProt O96008 1-361) MGNVLAASSPPAGPPPPPAPALVGLPPPPPSPPGFTLPPLGGSLGAGTSTSRSSERTPGAATASASGAAEDGACGCLPNPGTFEECHRKCKELFPIQMEGVKLTVNKGLSNHFQVNHTVALSTIGESNYHFGVTYVGTKQLSPTEAFPVLVGDMDNSGSLNAQVIHQLGPGLRSKMAIQTQQSKFVNWQVDGEYRGSDFTAAVTLGNPDVLVGSGILVAHYLQSITPCLALGGELVYHRRPGEEGTVMSLAGKYTLNNWLATVTLGQAGMHATYYHKASDQLQVGVEFEASTRMQDTSVSFGYQLDLPKANLLFKGSVDSNWIVGATLEKKLPPLPLTLALGAFLNHRKNKFQCGFGLTIG

Read-outs that look alike come from different tables or passages of the source. These are yes or no findings as the source states them, for the method shown. In cells and extracts the contact can be indirect. A yes stands for co-enrichment or nearness to the bait. Other partners may have been found.
